Measurements reported in PubChem BioAssay AID504793 (Drosophila RNAi Screening Center, 2011).

Purpose: 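Genes required for cells to halt at G2/M after double-strand DNA breaks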 (primary screen)
Cells: Drosophila S2R+ cells
Reagents: long dsRNA against Drosophila genes, about 0.25 µg dsRNA per well
Timing: 4 days of dsRNA, then 4 hours of drug before read-out
Conditions: doxorubicin 0.5 µM for 4 hours to cause double-strand breaks, in cells also given a low, harmless dose of dsRNA against nbs to sensitise the assay
Read-out: 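Per-well count of mitotic cells stained for phospho-histone H3 after doxorubicin exposure, used as mitotic index; counts are raw and not normalised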
Scale: mitotic cells: higher = more cells in mitosis, weaker G2 arrest
Active means: 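Genes are called active only when high mitotic counts were reproduced with independent dsRNAs and mitosis was checked for delay without damage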
Meaning of the calls: active = confirmed in follow-up tests; inactive = not confirmed
The deposit covers about 23,000 reagents; this is a random part of those with a known target gene and a result. In the full data, 62 (0.27%) are marked active. 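Calls come from follow-up tests whose scores are not deposited, so confirmed genes may have low counts here; counts are not normalised per plate.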 The raw values are shown without normalisation. A plus sign joins genes that one reagent is predicted to hit.

For Sems [SID104191418], how do the results read?
mitotic cells, replicate 1: 5; activity call: inactive

How did the screen score Sems [SID104204431]?
mitotic cells, replicate 1: 8; activity call: inactive

With CG4497 [SID104182546], what does the deposit list?
mitotic cells, replicate 1: 7; activity call: inactive

For Cpsf160 [SID104185760], what does the deposit list?
mitotic cells, replicate 1: 6; activity call: inactive

Which result is listed for CG8326 [SID104199895]?
mitotic cells, replicate 1: 6; activity call: inactive

How did the screen score CG8326 [SID104206912]?
mitotic cells, replicate 1: 4; activity call: inactive

What did the screen give for Ucp4B [SID104182457]?
mitotic cells, replicate 1: 8; activity call: inactive

Which result is listed for FASN2 [SID104179959]?
mitotic cells, replicate 1: 4; activity call: inactive

What did the screen give for FASN2 [SID104180402]?
mitotic cells, replicate 1: 5; activity call: inactive

What is on record for CG12923 [SID104186029]?
mitotic cells, replicate 1: 8; activity call: inactive

What is on record for Nup58 [SID104196027]?
mitotic cells, replicate 1: 17; activity call: inactive

With Nup58 [SID104206407], how do the results read?
mitotic cells, replicate 1: 5; activity call: inactive

With Srp9 [SID104190765], what was measured?
mitotic cells, replicate 1: 4; activity call: inactive

With Suv3 [SID104192127], what does the deposit list?
mitotic cells, replicate 1: 8; activity call: inactive

What did the screen give for Oat [SID104190835]?
mitotic cells, replicate 1: 5; activity call: inactive

With CG6933 [SID104190543], what was measured?
mitotic cells, replicate 1: 7; activity call: inactive

With Grl36a [SID104201417], how do the results read?
mitotic cells, replicate 1: 10; activity call: inactive

How did the screen score CG17127 [SID104182373]?
mitotic cells, replicate 1: 9; activity call: inactive

How did the screen score CG17127 [SID104207152]?
mitotic cells, replicate 1: 6; activity call: inactive

Which result is listed for mRpS31 [SID104190348]?
mitotic cells, replicate 1: 4; activity call: inactive

What did the screen give for Tcs4 [SID104199379]?
mitotic cells, replicate 1: 5; activity call: inactive

With Tcs4 [SID104207399], how do the results read?
mitotic cells, replicate 1: 7; activity call: inactive

Targets above whose target name starts with F or f (2):
FASN2 [SID104179959] → mitotic cells, replicate 1: 4; activity call: inactive
FASN2 [SID104180402] → mitotic cells, replicate 1: 5; activity call: inactive

The list goes on.
For CG5342 [SID104195568], how do the results read?
mitotic cells, replicate 1: 4; activity call: inactive

With Prosalpha1R + Prosalpha1 [SID104187307], what does the deposit list?
mitotic cells, replicate 1: 82; activity call: inactive

What did the screen give for Prosalpha1R + Prosalpha1 [SID104207631]?
mitotic cells, replicate 1: 106; activity call: inactive

How did the screen score CG6479 [SID104190439]?
activity call: inactive

For HLH4C [SID104198462], what was measured?
mitotic cells, replicate 1: 4; activity call: inactive

For HLH4C [SID104201107], what does the deposit list?
mitotic cells, replicate 1: 7; activity call: inactive

What did the screen give for HLH4C [SID104203774]?
mitotic cells, replicate 1: 2; activity call: inactive

How did the screen score nan [SID104190343]?
mitotic cells, replicate 1: 4; activity call: inactive

With Usp20-33 [SID104186988], what does the deposit list?
mitotic cells, replicate 1: 2; activity call: inactive

Which result is listed for Dredd [SID104198253]?
mitotic cells, replicate 1: 6; activity call: inactive

For CG31021 [SID104201822], how do the results read?
mitotic cells, replicate 1: 10; activity call: inactive

What is on record for Bap170 [SID104184756]?
mitotic cells, replicate 1: 5; activity call: inactive

With Bap170 [SID104201476], how do the results read?
mitotic cells, replicate 1: 8; activity call: inactive

Which result is listed for Bap170 [SID104206103]?
mitotic cells, replicate 1: 12; activity call: inactive
